Among the data in publication PMC7819943, “Rice protein-binding microarrays: a tool to detect cis-acting elements near promoter regions in rice” are binding signal values, retold here.

Sequences of proteins named here, by UniProt entry; tags and fusion partners are left off.
UniProt Q0JBA9, entry or part of it: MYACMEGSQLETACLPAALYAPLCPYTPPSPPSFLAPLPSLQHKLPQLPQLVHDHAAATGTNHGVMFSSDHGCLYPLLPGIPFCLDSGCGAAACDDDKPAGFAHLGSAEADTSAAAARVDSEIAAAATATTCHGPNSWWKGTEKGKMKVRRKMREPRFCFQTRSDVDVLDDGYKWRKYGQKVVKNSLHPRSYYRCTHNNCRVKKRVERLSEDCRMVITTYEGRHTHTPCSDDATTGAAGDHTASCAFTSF

The other results are listed elsewhere or left out.

This assay has as its target OsWRKY34 (Oryza sativa, UniProt Q0JBA9 1-250). Kind of assay: protein-binding microarray (RPBM); PBS, 2% BSA, 51.3 ng/ul salmon testes DNA, 50 uM zinc acetate, 200 nM TF, 25 C, 1 h; high values mean tight binding. The conditions noted are these: protein: recombinant; tags: N-terminal polyhistidine and DsRed monomer fusion (pET32a); label: CyDye5-dUTP incorporated in the synthesized complementary strand; 3' TTTTT single-stranded linker to array surface; dsDNA, one strand shown. The gist of the method:
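The binding signal is fluorescence intensity per feature, in arbitrary units, read on an Axon 4000B scanner. Polyhistidine- and DsRed-tagged transcription factors (N-terminal fusions) from E. coli BL21-CodonPlus were purified on Ni–NTA and applied at 200 nM for 1 h at 25 °C to a double-stranded, BSA-blocked custom Agilent array in buffer with 50 µM zinc acetate.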
Regarding “GGTATCAGAGCACGGTTTAGGAAGTGGACTCGTGACCGCGCGGAGTCACCTAGTGCAG”, the binding signal is 8040 fluorescence intensity (a.u.).
The value for “TTTTGTGTTTTGAATTTTGTCTCGAGACCTTCATGTTCTTCGGAGTCACCTAGTGCAG” was 10500 fluorescence intensity (a.u.); that for “ACTCCCTATACTATATATCATGTTTAAATTTTGGTCGTAACGGAGTCACCTAGTGCAG” was 8340 fluorescence intensity (a.u.).
Under “TGATCAGCTCGCCACGTCACCGTCACCGCCTCGCCTCGCTCGGAGTCACCTAGTGCAG” stands 13600 fluorescence intensity (a.u.); under “CTGTAGCTAGCTTTTCCAGGACAGCTTCATGCCTCTTCAACGGAGTCACCTAGTGCAG”, 8930 fluorescence intensity (a.u.).
The value for “TTCATTCTCGAGTCTCGTCATTGTATTGAAAGTATTCACACGGAGTCACCTAGTGCAG” was 8560 fluorescence intensity (a.u.); that for “GATTCTTCTAGTGTACCTTACTATGTTACCACAATAGTATCGGAGTCACCTAGTGCAG” was 8630 fluorescence intensity (a.u.); that for “ACTCCATCGTTTCAAATTATAAGTCGATTTAACCATTTTCCGGAGTCACCTAGTGCAG” was 9310 fluorescence intensity (a.u.).
As to “GAGCTTCCAGATCCCGCCGGCGACCATGATCATCTTCACCCGGAGTCACCTAGTGCAG”, the binding signal is 8850 fluorescence intensity (a.u.).
Under “CTTCCGGTGTTGGGCATTGATCGGTGGGTGGGTTGAGGATCGGAGTCACCTAGTGCAG” stands 15900 fluorescence intensity (a.u.); under “CCACAACTCTCAAATTTCTATCCTTTTCTTCTTCTTCCATCGGAGTCACCTAGTGCAG”, 9810 fluorescence intensity (a.u.); under “AACTTTTTCATCACATCAAAGCTTTCCTATACATACAAACCGGAGTCACCTAGTGCAG”, 8480 fluorescence intensity (a.u.).
Under “CCCATTTATAGAGCATCCTAGCTACCCTTTTTCCCTGATACGGAGTCACCTAGTGCAG” stands 9400 fluorescence intensity (a.u.).
Under “GTTCTTGGATGGTCGTTGTTGGTTTCGGTTGGTGTCGATGCGGAGTCACCTAGTGCAG” stands 9680 fluorescence intensity (a.u.); under “GCTTGTTTTTCCTTTTCTTTAAGCATCATTGACGTGATTACGGAGTCACCTAGTGCAG”, 13000 fluorescence intensity (a.u.).
Consider “GCGTTCCACCGCCGCTGTCTCGCTCTCTCTCCGCCGCCACCGGAGTCACCTAGTGCAG”, for which the binding signal was 16300 fluorescence intensity (a.u.).
Under “AAGTAGATATTGGAGTATTTTTCTTGTATTTTTGCTCACTCGGAGTCACCTAGTGCAG” stands 8750 fluorescence intensity (a.u.).
The value for “TGTCCTGTCGCCTTCGATTTCTCAAGTTGACCAAGCCGCTCGGAGTCACCTAGTGCAG” was 13600 fluorescence intensity (a.u.).
As to “ACATACTATACACATTTTGGCTGTATATATCCACACCTGACGGAGTCACCTAGTGCAG”, the binding signal was 9520 fluorescence intensity (a.u.).
Under “TCCTTTGGCAGATGTGTTTTACTTTTTTTTTTCTACTTGTCGGAGTCACCTAGTGCAG” stands 8910 fluorescence intensity (a.u.); under “ATGTTTCAATCCCGCGTGAGCCTTTGTGCATACAGTATTTCGGAGTCACCTAGTGCAG”, 11800 fluorescence intensity (a.u.).
Under “ATCTTAACCCTTCATTCATTTTCCAATCCCGCCCCTCATTCGGAGTCACCTAGTGCAG” stands 9670 fluorescence intensity (a.u.).
Consider “AAGTACATCTTTTTCGTCTTCTCCACTCCATCTCCATGACCGGAGTCACCTAGTGCAG”, for which the binding signal was 8380 fluorescence intensity (a.u.).
The value for “CACTCTTTATTTTATTATGACTTGATTCGTCATCAAATGTCGGAGTCACCTAGTGCAG” was 8680 fluorescence intensity (a.u.).
With “GCTTTGCTTGTGGTTGTGGTTGTGAACTTGTGATGATGAACGGAGTCACCTAGTGCAG”, the binding signal was 9420 fluorescence intensity (a.u.).
As for “AGGTCACACAACATCGCGGCAATTTTCTATTTACGCCCCTCGGAGTCACCTAGTGCAG”, the binding signal was 9060 fluorescence intensity (a.u.).
Regarding “TTGTTTTCGTACTAGCCTGCACAAACCTCTTTTTAAGTTACGGAGTCACCTAGTGCAG”, the binding signal is 8610 fluorescence intensity (a.u.).
Under “CTGCATCTGCTGCTGCTGCTGCCACTGCCACTCTTGTCCACGGAGTCACCTAGTGCAG” stands 8320 fluorescence intensity (a.u.).
As for “CTCTGATGTCCTATGCATGTTCCAGTTTATTCAGGGCTTGCGGAGTCACCTAGTGCAG”, the binding signal is 8920 fluorescence intensity (a.u.).
The value for “CGCCATGCATTTCATCCATTCTTTTCCGCCACAAAAATGCCGGAGTCACCTAGTGCAG” was 8780 fluorescence intensity (a.u.); that for “CCACCAACTAGCTCTCTCTCTCTCTCTCTCTCTCGCGCCGCGGAGTCACCTAGTGCAG” was 8070 fluorescence intensity (a.u.); that for “TTTGACACCGTTGACTTTTTAGTACGTATTTGATCATTCGCGGAGTCACCTAGTGCAG” was 33800 fluorescence intensity (a.u.).
The value for “GTGTTTTGTTCTGGTCACAAGTTAGTCATGCCAAACTTTCCGGAGTCACCTAGTGCAG” was 8940 fluorescence intensity (a.u.); that for “ATGTCCTTTTCGCCGGCCCATTTCAGCTGCTCTCACTCTCCGGAGTCACCTAGTGCAG” was 12100 fluorescence intensity (a.u.).
Consider “GGAAGTGAGTTATACTATTATCCTGCTCTACTATGAAAACCGGAGTCACCTAGTGCAG”, for which the binding signal was 8600 fluorescence intensity (a.u.).
The value for “CCCTATTAATGCAACAGCTTCCTGTTTCAGTCTGTACTCTCGGAGTCACCTAGTGCAG” was 8130 fluorescence intensity (a.u.); that for “CACATGTCATCACCTCTTTTGTTCATAGCTACAGTCCATGCGGAGTCACCTAGTGCAG” was 11400 fluorescence intensity (a.u.).
“CAGTAACAATCACTCATTCTCAGTATCTGCTACTCCTCTACGGAGTCACCTAGTGCAG”: the binding signal was 8710 fluorescence intensity (a.u.).
Under “CCCAAAACTTGCATCACACTCACTAAGTTAGATTGTTCCTCGGAGTCACCTAGTGCAG” stands 8210 fluorescence intensity (a.u.); under “ATCTCGACCAAACCGCACATACATCTCGTCCCTGCTGGGGCGGAGTCACCTAGTGCAG”, 10400 fluorescence intensity (a.u.).
The value for “TTGTAGAATTCATCCTTTGTCAATGTTATGGAATGGATTACGGAGTCACCTAGTGCAG” was 8500 fluorescence intensity (a.u.).
Turning to “ACTTTGTAGCCCAATAACCACTATTTGATTCAACAGGTTTCGGAGTCACCTAGTGCAG”, the binding signal is 9900 fluorescence intensity (a.u.).
